Data reported in article PMC4858740.
These are yes or no findings as the source states them, for the method shown. In cells and extracts the contact can be indirect. Some binding calls cover weakened binding; strength is not graded here.

The chains behind the UniProt entries cited, without tags or fusion partners. Residues count along the entry.
UniProt Q96DU3, residues 22-332: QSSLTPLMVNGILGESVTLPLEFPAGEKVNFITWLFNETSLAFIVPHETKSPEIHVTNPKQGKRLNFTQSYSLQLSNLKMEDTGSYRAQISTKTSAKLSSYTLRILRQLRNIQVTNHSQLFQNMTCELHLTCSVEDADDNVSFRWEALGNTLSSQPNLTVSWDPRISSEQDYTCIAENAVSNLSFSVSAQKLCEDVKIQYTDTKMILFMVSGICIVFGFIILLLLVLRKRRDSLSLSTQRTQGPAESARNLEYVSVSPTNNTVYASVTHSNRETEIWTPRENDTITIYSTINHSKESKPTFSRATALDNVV
UniProt P29350: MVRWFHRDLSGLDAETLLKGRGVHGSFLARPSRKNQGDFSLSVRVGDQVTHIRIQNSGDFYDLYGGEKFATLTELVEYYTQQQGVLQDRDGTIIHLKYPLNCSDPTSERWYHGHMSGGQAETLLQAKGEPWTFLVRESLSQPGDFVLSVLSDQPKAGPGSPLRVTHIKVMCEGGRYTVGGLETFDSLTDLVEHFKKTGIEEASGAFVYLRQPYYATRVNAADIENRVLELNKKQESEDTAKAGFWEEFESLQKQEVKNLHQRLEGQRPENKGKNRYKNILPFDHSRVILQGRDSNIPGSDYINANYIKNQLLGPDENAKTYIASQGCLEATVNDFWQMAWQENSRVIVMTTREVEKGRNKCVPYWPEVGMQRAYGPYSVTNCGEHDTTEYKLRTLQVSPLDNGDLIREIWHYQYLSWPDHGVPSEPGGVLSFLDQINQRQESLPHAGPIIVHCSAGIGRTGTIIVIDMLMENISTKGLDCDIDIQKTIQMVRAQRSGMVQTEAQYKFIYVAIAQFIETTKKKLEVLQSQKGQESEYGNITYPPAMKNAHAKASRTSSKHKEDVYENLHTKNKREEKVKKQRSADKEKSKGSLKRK

Key:
[1] = target: T1, SLAMF5, endogenous in HEL cells (human (endogenous in HEL)) (UniProt Q9UIB8); assay: co-IP
T1 sequence: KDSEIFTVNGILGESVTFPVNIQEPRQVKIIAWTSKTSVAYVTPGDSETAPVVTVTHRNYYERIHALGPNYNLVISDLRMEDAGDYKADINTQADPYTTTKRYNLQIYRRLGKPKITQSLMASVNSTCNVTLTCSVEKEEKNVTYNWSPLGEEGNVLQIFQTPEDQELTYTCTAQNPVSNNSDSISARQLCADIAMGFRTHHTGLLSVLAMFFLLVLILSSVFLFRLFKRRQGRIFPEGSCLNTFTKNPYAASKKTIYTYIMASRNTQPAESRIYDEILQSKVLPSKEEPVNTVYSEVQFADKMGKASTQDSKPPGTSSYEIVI

[2] = target: SLAMF6, endogenous in HEL cells (human (endogenous in HEL)) (UniProt Q96DU3); assay: co-IP

## SHP-1 (from UniProt P29350 1-595) (enzyme)
[1]
  binding: binds
[2]
  binding: binds
